Results published in the supplement of paper PMC10849652.
Some of the results follow.

Protein sequences, listed by entry. Tags and fused reporters are not part of them. Lines headed by an entry give the natural chain unless they say otherwise; changes in a name come on top.
UniProt Q86YP4: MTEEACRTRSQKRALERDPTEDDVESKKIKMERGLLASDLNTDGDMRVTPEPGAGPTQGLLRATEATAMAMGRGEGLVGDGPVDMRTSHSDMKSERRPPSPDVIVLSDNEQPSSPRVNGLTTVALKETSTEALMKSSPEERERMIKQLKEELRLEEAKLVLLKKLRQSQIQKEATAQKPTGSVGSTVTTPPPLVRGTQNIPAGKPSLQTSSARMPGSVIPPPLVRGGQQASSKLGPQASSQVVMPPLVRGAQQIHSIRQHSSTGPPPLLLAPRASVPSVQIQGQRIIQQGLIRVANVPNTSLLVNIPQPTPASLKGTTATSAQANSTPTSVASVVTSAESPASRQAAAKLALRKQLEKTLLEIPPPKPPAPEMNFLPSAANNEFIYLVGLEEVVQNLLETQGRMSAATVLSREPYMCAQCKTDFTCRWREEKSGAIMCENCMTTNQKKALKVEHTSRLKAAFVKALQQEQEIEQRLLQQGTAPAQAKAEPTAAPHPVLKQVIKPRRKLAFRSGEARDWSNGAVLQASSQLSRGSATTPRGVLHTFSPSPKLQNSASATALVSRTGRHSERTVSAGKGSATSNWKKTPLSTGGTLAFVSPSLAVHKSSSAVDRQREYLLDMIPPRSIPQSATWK
UniProt P15976: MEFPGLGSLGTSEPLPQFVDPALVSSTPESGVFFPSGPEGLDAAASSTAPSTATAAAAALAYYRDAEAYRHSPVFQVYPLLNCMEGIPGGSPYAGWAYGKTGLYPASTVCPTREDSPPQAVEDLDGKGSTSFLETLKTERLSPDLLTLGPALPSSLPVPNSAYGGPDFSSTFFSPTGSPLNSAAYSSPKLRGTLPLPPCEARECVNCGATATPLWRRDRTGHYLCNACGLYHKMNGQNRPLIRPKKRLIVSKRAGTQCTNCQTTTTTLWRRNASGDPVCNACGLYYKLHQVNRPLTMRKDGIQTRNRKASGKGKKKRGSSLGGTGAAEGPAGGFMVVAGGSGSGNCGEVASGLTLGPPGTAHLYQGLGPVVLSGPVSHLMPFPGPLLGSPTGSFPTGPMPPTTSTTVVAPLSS
UniProt P22083, whole entry, looked up: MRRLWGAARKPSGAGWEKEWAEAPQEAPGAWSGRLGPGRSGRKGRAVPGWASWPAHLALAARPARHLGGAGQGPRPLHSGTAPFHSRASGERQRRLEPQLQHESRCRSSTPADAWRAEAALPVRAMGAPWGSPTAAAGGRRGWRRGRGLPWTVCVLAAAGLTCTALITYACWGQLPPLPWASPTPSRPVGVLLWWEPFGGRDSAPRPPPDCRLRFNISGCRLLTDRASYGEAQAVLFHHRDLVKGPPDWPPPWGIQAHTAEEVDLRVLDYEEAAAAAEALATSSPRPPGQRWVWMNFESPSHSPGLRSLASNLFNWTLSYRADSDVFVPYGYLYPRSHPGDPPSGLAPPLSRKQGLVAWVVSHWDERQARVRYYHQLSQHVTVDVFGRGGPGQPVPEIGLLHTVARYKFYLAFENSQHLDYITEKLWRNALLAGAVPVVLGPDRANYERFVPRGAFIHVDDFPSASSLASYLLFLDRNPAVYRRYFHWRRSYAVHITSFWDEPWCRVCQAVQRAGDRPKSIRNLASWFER
UniProt P60520, whole entry, looked up: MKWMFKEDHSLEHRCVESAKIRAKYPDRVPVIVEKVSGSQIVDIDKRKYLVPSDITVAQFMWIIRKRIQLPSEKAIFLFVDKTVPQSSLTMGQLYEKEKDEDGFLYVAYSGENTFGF
UniProt P22466: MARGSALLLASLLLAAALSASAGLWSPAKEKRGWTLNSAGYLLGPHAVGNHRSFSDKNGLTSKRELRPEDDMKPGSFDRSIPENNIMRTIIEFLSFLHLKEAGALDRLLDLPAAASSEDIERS
UniProt Q13069: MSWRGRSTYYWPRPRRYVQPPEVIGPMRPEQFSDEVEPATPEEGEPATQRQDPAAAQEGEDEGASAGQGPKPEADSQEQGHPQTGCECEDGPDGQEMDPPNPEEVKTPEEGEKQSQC
UniProt P30047: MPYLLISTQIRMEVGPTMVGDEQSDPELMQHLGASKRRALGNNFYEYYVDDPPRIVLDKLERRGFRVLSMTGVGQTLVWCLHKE
UniProt Q9H3K2: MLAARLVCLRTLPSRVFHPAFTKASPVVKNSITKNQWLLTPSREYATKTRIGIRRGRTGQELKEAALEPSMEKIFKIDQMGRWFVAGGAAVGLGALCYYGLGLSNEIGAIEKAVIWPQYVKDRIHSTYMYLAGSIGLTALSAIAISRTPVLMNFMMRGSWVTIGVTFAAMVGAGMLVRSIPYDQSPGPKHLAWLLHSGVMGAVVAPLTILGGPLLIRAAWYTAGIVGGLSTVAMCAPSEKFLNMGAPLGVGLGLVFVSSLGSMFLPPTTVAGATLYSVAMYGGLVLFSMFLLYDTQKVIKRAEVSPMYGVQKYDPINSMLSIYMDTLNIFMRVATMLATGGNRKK
UniProt P48506: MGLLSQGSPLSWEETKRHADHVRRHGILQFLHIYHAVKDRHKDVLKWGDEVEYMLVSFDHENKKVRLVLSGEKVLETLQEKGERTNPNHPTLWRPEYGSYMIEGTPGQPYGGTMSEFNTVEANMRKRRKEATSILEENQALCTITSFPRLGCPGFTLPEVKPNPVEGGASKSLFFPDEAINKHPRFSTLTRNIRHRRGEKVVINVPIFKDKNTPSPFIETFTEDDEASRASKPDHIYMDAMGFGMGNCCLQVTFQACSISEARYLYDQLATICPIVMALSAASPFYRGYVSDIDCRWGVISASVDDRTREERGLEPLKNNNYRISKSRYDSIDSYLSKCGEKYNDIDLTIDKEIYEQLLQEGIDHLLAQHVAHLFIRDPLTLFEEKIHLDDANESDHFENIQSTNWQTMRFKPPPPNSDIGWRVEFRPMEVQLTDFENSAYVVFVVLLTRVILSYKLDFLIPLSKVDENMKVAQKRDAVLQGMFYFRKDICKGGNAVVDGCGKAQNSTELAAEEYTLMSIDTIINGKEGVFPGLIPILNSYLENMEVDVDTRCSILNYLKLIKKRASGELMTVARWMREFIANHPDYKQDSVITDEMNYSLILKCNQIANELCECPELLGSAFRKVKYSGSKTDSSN
UniProt Q9HCG7: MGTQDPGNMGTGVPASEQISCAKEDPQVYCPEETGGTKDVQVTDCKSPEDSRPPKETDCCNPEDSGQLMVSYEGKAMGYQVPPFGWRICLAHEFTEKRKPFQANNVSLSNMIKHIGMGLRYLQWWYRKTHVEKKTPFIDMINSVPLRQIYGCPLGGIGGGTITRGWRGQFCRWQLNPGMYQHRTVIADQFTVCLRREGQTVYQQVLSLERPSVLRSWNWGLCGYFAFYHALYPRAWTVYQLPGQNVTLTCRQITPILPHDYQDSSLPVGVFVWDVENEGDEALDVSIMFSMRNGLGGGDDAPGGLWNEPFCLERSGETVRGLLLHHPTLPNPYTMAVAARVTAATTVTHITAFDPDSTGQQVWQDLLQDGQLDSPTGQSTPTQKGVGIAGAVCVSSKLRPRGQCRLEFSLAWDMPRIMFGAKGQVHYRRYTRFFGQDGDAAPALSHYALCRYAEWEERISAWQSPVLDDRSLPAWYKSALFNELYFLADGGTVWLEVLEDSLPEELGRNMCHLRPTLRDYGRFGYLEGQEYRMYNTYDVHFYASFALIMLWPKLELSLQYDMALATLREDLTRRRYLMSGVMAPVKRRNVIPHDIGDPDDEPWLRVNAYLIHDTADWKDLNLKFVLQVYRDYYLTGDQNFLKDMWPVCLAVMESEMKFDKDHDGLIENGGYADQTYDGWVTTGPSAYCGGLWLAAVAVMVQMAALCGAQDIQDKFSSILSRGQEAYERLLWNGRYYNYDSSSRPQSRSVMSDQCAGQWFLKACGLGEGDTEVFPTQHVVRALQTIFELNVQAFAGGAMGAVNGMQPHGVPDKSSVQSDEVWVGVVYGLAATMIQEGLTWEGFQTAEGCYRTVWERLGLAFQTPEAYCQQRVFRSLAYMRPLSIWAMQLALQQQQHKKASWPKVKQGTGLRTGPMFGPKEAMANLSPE
UniProt Q13480: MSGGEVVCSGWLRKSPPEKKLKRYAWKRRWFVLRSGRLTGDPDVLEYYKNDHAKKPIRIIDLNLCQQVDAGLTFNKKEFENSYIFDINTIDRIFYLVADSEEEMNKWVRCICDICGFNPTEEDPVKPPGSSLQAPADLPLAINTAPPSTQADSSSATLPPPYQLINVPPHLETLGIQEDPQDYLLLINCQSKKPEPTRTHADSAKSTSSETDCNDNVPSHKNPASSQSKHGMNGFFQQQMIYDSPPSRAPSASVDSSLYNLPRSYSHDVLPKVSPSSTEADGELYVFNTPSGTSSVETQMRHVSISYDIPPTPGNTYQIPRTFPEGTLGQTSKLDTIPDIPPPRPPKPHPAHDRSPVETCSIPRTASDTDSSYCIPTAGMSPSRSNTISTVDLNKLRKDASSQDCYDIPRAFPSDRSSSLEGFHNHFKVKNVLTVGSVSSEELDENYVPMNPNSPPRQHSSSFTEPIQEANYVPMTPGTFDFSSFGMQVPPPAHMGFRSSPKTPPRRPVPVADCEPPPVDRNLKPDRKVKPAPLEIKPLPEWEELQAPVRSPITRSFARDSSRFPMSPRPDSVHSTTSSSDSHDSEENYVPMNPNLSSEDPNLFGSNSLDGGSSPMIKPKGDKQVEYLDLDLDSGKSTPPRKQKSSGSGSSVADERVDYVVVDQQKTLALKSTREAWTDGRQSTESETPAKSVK
UniProt Q8WTR4: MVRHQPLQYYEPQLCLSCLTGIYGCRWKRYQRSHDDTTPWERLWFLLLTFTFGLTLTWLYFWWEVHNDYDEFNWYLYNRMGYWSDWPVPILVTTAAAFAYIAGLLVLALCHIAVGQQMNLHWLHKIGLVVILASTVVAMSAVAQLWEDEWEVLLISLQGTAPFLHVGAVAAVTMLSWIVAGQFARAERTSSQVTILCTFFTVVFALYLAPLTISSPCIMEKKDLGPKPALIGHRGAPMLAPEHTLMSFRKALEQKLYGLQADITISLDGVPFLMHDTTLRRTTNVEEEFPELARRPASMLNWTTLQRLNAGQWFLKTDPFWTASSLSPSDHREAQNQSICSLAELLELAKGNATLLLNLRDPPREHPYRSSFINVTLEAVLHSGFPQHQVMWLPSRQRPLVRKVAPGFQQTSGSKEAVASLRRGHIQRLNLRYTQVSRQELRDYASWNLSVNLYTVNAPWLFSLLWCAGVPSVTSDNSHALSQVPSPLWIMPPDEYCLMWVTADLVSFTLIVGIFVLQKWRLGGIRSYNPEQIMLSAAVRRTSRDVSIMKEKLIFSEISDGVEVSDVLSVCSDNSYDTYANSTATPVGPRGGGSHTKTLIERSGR
UniProt Q9UM11, whole entry, looked up: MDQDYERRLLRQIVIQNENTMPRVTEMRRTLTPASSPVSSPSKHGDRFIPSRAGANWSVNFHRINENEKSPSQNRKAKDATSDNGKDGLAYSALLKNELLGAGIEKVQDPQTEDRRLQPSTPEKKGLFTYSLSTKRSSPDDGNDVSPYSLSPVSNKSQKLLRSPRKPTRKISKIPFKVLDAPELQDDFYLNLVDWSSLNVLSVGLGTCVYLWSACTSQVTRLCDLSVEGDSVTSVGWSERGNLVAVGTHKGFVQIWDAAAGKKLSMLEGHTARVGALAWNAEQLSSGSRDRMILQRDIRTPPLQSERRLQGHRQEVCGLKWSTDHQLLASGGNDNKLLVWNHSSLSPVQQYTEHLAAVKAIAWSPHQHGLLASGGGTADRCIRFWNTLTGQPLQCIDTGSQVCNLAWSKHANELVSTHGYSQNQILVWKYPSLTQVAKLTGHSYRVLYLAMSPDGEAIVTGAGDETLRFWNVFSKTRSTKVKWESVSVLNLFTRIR
UniProt P38435: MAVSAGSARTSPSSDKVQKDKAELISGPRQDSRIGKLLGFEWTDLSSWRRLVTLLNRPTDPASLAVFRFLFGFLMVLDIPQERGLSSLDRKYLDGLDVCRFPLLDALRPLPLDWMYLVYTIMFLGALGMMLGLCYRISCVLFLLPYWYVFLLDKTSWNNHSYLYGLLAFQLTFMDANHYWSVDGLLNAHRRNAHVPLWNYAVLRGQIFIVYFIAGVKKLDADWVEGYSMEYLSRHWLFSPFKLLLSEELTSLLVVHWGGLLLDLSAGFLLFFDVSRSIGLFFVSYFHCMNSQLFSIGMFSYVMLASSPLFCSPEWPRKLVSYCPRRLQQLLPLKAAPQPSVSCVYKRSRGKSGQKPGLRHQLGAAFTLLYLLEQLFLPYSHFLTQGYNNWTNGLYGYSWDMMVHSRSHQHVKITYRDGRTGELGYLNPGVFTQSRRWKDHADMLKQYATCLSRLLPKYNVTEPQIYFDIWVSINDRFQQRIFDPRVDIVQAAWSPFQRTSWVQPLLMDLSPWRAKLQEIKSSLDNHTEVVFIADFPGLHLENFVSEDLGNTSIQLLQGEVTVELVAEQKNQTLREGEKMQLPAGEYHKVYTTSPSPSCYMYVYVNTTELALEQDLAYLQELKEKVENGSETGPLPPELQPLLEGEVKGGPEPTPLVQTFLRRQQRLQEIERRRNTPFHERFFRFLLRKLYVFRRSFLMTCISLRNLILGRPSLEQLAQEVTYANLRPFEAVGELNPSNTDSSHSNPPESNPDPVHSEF

What was measured:
Test in all cases: log2 fold change, soluble protein after heating vs DMSO (PISA); higher = thermal stabilisation; K562 cells, 10 uM, 30 min; active = over 0.2 and 3.5 SD of the protein, either way, in both replicates (recomputed)
[1] = compound: COC1=CC=C(C=C1)CN2C=CC3=C2C=C(C=C3)C(=O)NO
Summary of the method: (§1)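 Quantification of soluble protein used TMTpro 16plex LC-MS/MS, with channel sums equalised. Samples were the supernatant after 21,000xg for 90 min of pooled aliquots from K562 cells (2×10^6 cells/mL) treated with 10 μM compound for 30 min, heated for 3 min over 48°C-58°C, and extracted in PBS with 0.5% NP-40 at 4°C. Values, from duplicates, describe thermal stability against control samples on a log2 fold-change scale.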

filanesib = compound: CON(C)C(=O)N1N=C(c2cc(F)ccc2F)S[C@@]1(CCCN)c1ccccc1 [filanesib]
Summary of the method: as §1

zotarolimus = compound: CO[C@H]1C[C@@H]2CC[C@@H](C)[C@@](O)(O2)C(=O)C(=O)N2CCCC[C@H]2C(=O)O[C@H]([C@H](C)C[C@@H]2CC[C@H](n3cnnn3)[C@H](OC)C2)CC(=O)[C@H](C)/C=C(\C)[C@@H](O)[C@@H](OC)C(=O)[C@H](C)C[C@H](C)/C=C/C=C/C=C/1C [zotarolimus]
Summary of the method: as §1

idasanutlin = compound: COc1cc(C(=O)O)ccc1NC(=O)[C@@H]1N[C@@H](CC(C)(C)C)[C@](C#N)(c2ccc(Cl)cc2F)[C@H]1c1cccc(Cl)c1F [idasanutlin]
Summary of the method: as §1

alisertib = compound: COc1cc(Nc2ncc3c(n2)-c2ccc(Cl)cc2C(c2c(F)cccc2OC)=NC3)ccc1C(=O)O [alisertib]
Summary of the method: as §1

[2] = compound: COc1cc2nc(-c3cc(F)ccc3O)nc(N[C@@H]3CNC[C@H]3C(C)(C)O)c2cc1OC
Summary of the method: as §1

gefitinib = compound: COc1cc2ncnc(Nc3ccc(F)c(Cl)c3)c2cc1OCCCN1CCOCC1 [gefitinib]
Summary of the method: as §1

[3] = compound: COc1cccc2cc(-c3nc([C@H]4CC[C@H](C(=O)O)CC4)n4ncnc(N)c34)[nH]c12
Summary of the method: as §1

lapatinib = compound: CS(=O)(=O)CCNCc1ccc(-c2ccc3ncnc(Nc4ccc(OCc5cccc(F)c5)c(Cl)c4)c3c2)o1 [lapatinib]
Summary of the method: as §1

pictilisib = compound: CS(=O)(=O)N1CCN(Cc2cc3nc(-c4cccc5[nH]ncc45)nc(N4CCOCC4)c3s2)CC1 [pictilisib]
Summary of the method: as §1

| Target | log2 fold change [1] | log2 fold change (filanesib) | log2 fold change (zotarolimus) | log2 fold change (idasanutlin) | log2 fold change (alisertib) | log2 fold change [2] | log2 fold change (gefitinib) | log2 fold change [3] | log2 fold change (lapatinib) | log2 fold change (pictilisib) |
| --- | --- | --- | --- | --- | --- | --- | --- | --- | --- | --- |
| GATAD2A isoform 3 (UniProt Q86YP4) | inactive: 0.16 | inactive: 0.117 | inactive: 0.023 | inactive: 0.025 | inactive: -0.057 | inactive: -0.061 | inactive: 0 | inactive: -0.06 | inactive: -0.032 | inactive: 0.013 |
| GATA1 (UniProt P15976) | inactive: -0.023 | inactive: 0.001 | inactive: -0.05 | inactive: -0.034 | inactive: 0.02 | inactive: 0.07 | inactive: 0.014 | inactive: -0.087 | inactive: 0.008 | inactive: -0.021 |
| FNTB (UniProt P49356) | inactive: 0.088 | inactive: 0.26 | inactive: 0.159 | inactive: -0.024 | inactive: -0.074 | inactive: -0.057 | inactive: 0.02 | inactive: 0.024 | inactive: 0.18 | inactive: -0.165 |
| GCLM (UniProt P48507) | inactive: 0.066 | inactive: -0.004 | inactive: 0.071 | inactive: -0.124 | inactive: -0.003 | inactive: 0.026 | inactive: 0.06 | inactive: -0.057 | inactive: 0.011 | inactive: 0.046 |
| GADD45GIP1 (UniProt Q8TAE8) | inactive: -0.019 | inactive: 0.108 | inactive: 0.006 | inactive: -0.041 | inactive: -0.035 | inactive: -0.072 | inactive: -0.005 | inactive: -0.011 | inactive: 0.089 | inactive: 0.061 |
| GAN (UniProt Q9H2C0) | inactive: -0.009 | inactive: -0.102 | inactive: 0.018 | inactive: -0.141 | inactive: 0.113 | inactive: -0.011 | inactive: 0.048 | inactive: 0.095 | inactive: -0.003 | inactive: 0.063 |
| FUT4 (UniProt P22083) | inactive: -0.167 |  |  |  |  |  |  |  |  |  |
| GALNT2 (UniProt Q10471) | inactive: 0.018 | inactive: -0.025 | inactive: 0.043 | inactive: -0.065 | inactive: -0.03 | inactive: -0.042 | inactive: 0.059 | inactive: -0.012 | inactive: 0.036 | inactive: -0.01 |
| GEMIN5 (UniProt Q8TEQ6) | inactive: 0.017 | inactive: 0.037 | inactive: 0.039 | inactive: -0.024 | inactive: -0.041 | active: -0.235 | inactive: 0.013 | inactive: -0.035 | inactive: 0.015 | inactive: -0.021 |
| GGPS1 (UniProt O95749) | inactive: -0.044 | inactive: 0.013 | inactive: -0.023 | inactive: 0.015 | inactive: -0.058 | inactive: -0.001 | inactive: 0.016 | inactive: 0.088 | inactive: -0.02 | inactive: 0.06 |
| GALC (UniProt P54803) | inactive: 0.007 | inactive: -0.017 | inactive: -0.071 | inactive: -0.121 | inactive: 0.049 | inactive: 0.099 | inactive: -0.014 | inactive: 0.066 | inactive: 0.042 | inactive: 0.159 |
| GABARAPL2 (UniProt P60520) | inactive: 0.185 | inactive: -0.01 | inactive: -0.036 | inactive: -0.072 | inactive: 0.016 | inactive: 0.033 | inactive: -0.014 | inactive: 0 | inactive: -0.006 | inactive: -0.059 |
| GCDH (UniProt Q92947) | inactive: 0.02 | inactive: -0.081 | inactive: 0.027 | inactive: -0.066 | inactive: -0.066 | inactive: -0.011 | inactive: 0.042 | inactive: 0.016 | inactive: -0.004 | inactive: -0.02 |
| GDE1 (UniProt Q9NZC3) | inactive: 0.046 | inactive: -0.102 | inactive: 0.043 | inactive: -0.064 | inactive: -0.176 | inactive: 0.012 | inactive: 0.008 | inactive: 0.01 | inactive: -0.011 |  |
| GAL (UniProt P22466) | inactive: -0.067 |  |  |  |  |  |  |  |  |  |
| GARS1 (UniProt H7C443) | inactive: -0.5 | inactive: 0.206 | inactive: -0.013 | inactive: 0.018 | inactive: -0.011 | inactive: 0.215 | inactive: -0.032 | inactive: 0.122 | inactive: -0.409 | inactive: 0.28 |
| GAGE5 (UniProt Q13069) | inactive: -0.07 | inactive: -0.005 | inactive: -0.003 | inactive: 0.014 | inactive: -0.062 | inactive: -0.013 | inactive: -0.018 | inactive: 0.047 | inactive: -0.013 | inactive: 0.088 |
| GCHFR (UniProt P30047) | inactive: 0.014 | inactive: -0.02 | inactive: -0.063 | inactive: -0.222 | inactive: -0.007 | inactive: 0.016 | inactive: -0.035 | inactive: 0.117 | inactive: 0.006 | inactive: 0.279 |

| Target | log2 fold change [1] | log2 fold change (filanesib) | log2 fold change (zotarolimus) | log2 fold change (idasanutlin) | log2 fold change (alisertib) | log2 fold change [2] | log2 fold change (gefitinib) | log2 fold change [3] | log2 fold change (lapatinib) | log2 fold change (pictilisib) |
| --- | --- | --- | --- | --- | --- | --- | --- | --- | --- | --- |
| GALNT10 (UniProt Q86SR1) | inactive: 0.012 | inactive: 0.026 | inactive: 0.25 | inactive: 0.146 | inactive: -0.135 | inactive: -0.046 | inactive: 0.08 | inactive: -0.093 | inactive: -0.168 | inactive: 0.078 |
| GATD1 (UniProt Q8NB37) | inactive: -0.104 | inactive: 0.022 | inactive: -0.004 | inactive: -0.038 | inactive: -0.001 | inactive: 0.018 | inactive: -0.014 | inactive: 0.052 | inactive: -0.064 | inactive: 0.08 |
| GDI2 (UniProt Q5SX86) | inactive: -0.041 |  |  |  |  |  |  |  |  |  |
| GGA2 (UniProt Q9UJY4) | inactive: 0.012 | inactive: -0.09 | inactive: 0.069 | inactive: -0.017 | inactive: -0.067 | inactive: 0.181 | inactive: -0.004 | inactive: 0.112 | inactive: -0.027 |  |
| GHITM (UniProt Q9H3K2) | inactive: 0.056 | inactive: -0.072 | inactive: -0.035 | inactive: -0.124 | inactive: -0.009 | inactive: -0.18 | inactive: -0.006 | inactive: 0.064 | inactive: -0.007 | inactive: 0.037 |
| FUCA2 (UniProt Q9BTY2) | inactive: -0.094 | inactive: 0.002 | inactive: -0.019 | inactive: 0.177 | inactive: -0.044 | inactive: 0.011 | inactive: -0.013 | inactive: 0.045 | inactive: 0.025 | inactive: 0.011 |
| GCLC (UniProt P48506) | inactive: -0.009 | inactive: -0.064 | inactive: -0.021 | inactive: -0.045 | inactive: -0.033 | inactive: 0.061 | inactive: -0.001 | inactive: 0.027 | inactive: -0.018 | inactive: 0.083 |
| GBA2 (UniProt Q9HCG7) | inactive: -0.064 | inactive: 0.117 | inactive: 0.087 | inactive: -0.042 | inactive: 0.067 | inactive: 0.049 | inactive: 0.084 | inactive: -0.062 | inactive: 0.011 |  |
| GAB1 isoform 2 (UniProt Q13480) | inactive: -0.161 | inactive: -0.034 | inactive: -0.117 | inactive: 0.008 | inactive: 0.03 | inactive: -0.08 | inactive: 0 | inactive: 0.023 | inactive: 0.032 | inactive: -0.142 |
| GDPD5 (UniProt Q8WTR4) | inactive: -0.089 |  |  |  |  |  |  |  |  |  |
| GEMIN6 (UniProt Q8WXD5) | inactive: 0.001 | inactive: 0.005 | inactive: 0.154 | inactive: 0.071 | inactive: -0.019 | inactive: 0.006 | inactive: -0.003 | inactive: 0.096 | inactive: -0.077 | inactive: 0.064 |
| FRA10AC1 isoform 3 (UniProt Q70Z53) | inactive: -0.022 | inactive: 0.179 | inactive: -0.049 | inactive: -0.319 | inactive: -0.033 | inactive: 0.068 | inactive: 0 | inactive: -0.005 | inactive: -0.064 | inactive: -0.11 |
| FZR1 (UniProt Q9UM11) | inactive: 0.154 |  |  |  |  |  |  |  |  |  |
| GARS1 (UniProt P41250) | inactive: 0.002 | inactive: -0.028 | inactive: -0.012 | inactive: -0.021 | inactive: -0.046 | inactive: -0.017 | inactive: -0.006 | inactive: 0.054 | inactive: -0.032 | inactive: -0.012 |
| G6PD (UniProt E7EUI8) | inactive: -0.213 |  |  |  |  |  |  |  |  |  |
| FRRS1 (UniProt Q6ZNA5) | inactive: 0.019 | inactive: -0.019 | inactive: -0.027 | inactive: 0.028 | inactive: -0.001 | inactive: -0.134 | inactive: -0.027 | inactive: -0.016 | inactive: 0.015 | inactive: 0.01 |
| GGCX (UniProt P38435) | inactive: 0.036 | inactive: -0.056 | inactive: -0.016 | inactive: -0.053 | inactive: -0.47 | inactive: -0.028 | inactive: -0.032 | inactive: -0.011 | inactive: -0.042 | inactive: 0.097 |

3 successive records out of the list so far:

| Target | log2 fold change [1] | log2 fold change (filanesib) | log2 fold change (zotarolimus) | log2 fold change (idasanutlin) | log2 fold change (alisertib) | log2 fold change [2] | log2 fold change (gefitinib) | log2 fold change [3] | log2 fold change (lapatinib) | log2 fold change (pictilisib) |
| --- | --- | --- | --- | --- | --- | --- | --- | --- | --- | --- |
| GATD1 (UniProt Q8NB37) | inactive: -0.104 | inactive: 0.022 | inactive: -0.004 | inactive: -0.038 | inactive: -0.001 | inactive: 0.018 | inactive: -0.014 | inactive: 0.052 | inactive: -0.064 | inactive: 0.08 |
| GDI2 (UniProt Q5SX86) | inactive: -0.041 |  |  |  |  |  |  |  |  |  |
| GGA2 (UniProt Q9UJY4) | inactive: 0.012 | inactive: -0.09 | inactive: 0.069 | inactive: -0.017 | inactive: -0.067 | inactive: 0.181 | inactive: -0.004 | inactive: 0.112 | inactive: -0.027 |  |
